Primary screen of a compound library

Data taken from ChEMBL document CHEMBL3988442, “University of Dundee, Small-Polar-MMV Screening Library” (2021).

The filed quantity is “Percent Effect” (%).
How 0% and 100% were set is not recorded. Most values in the screen are low, and negative values occur.
The compounds are a random part of those screened.

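Whole-cell assay for inhibitors of Mycobacterium tuberculosis growth, labelled Cornell in the record; the read-out is not stated. The concentration is filed as 10 mM, unlikely as a test dose, so the dose is not known. The record gives no direction; compounds strong in two other growth screens of this library score well above the rest, so higher reads as stronger inhibition. About 53,000 compounds were tested under these conditions; 1.7% (about 900) showed 50% or more at least once.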

| structure | Percent Effect |
|---|---|
| `COC(=O)N1CCN(Cc2csc(-c3ncccn3)n2)CC1` | -7.659% |
| `Cc1cc(-c2cc(S(=O)(=O)N3C[C@H](C4CC4)[C@@H](N)C3)c(C)s2)[nH]n1` | 18.34% |
| `Cc1ncsc1CCC(=O)NC1CCN(Cc2cccs2)CC1` | 5.785% |
| `O=C(O)C(F)(F)F.O=C1COC2(CCN(c3ccccn3)CC2)CN1` | 26.22% |
| `Cc1nc(Nc2ncccn2)cc(C2CCCN2Cc2ncc[nH]2)n1` (centres unmarked) | 11.82% |
| `O=C(O)C(F)(F)F.[H][C@@]12CCN(C3CCOC3)[C@@]1([H])CC(=O)N2Cc1csc(C)n1` (some centres unmarked) | -9.299% |
| `Cc1ccnc(NC(=O)C2CCN(CCCn3ccnc3C)CC2)c1` | 6.292% |
| `COC(=O)Cc1cccc(NC(=O)Cc2cc(C)[nH]n2)c1` | 11.96% |
| `CCN1CCN(C(=O)NC(C)c2noc(-c3ccccc3)n2)CC1` (centres unmarked) | 17.91% |
| `COc1cccc(CC(=O)N2CCC(Cc3nnc(SC)n3C)CC2)c1` | -33.06% |
| `CN1CCOCC12CCN(C(=O)C1CCC1)CC2.O=C(O)C(F)(F)F` | 1.918% |
| `Cc1nc(N)cc(C2CN(C(=O)c3cscn3)CCO2)n1` (centres unmarked) | 18.59% |
| `CCCc1ccc(CN2CCC3(CCC(=O)N(C)CC3)CC2)o1` | -5.7% |
| `O=C(O)C(F)(F)F.[H][C@@]12CCN(c3nncs3)[C@@]1([H])CCN2C(=O)N(C)C` | 27.57% |
| `CCc1noc(CNc2ccc(C(=O)N3CCCC(C)C3)cc2C)n1` (centres unmarked) | 16.19% |
| `O=C(C1CCCN1c1ncnc2ccsc12)N1CCSCC1` (centres unmarked) | 7.6% |
| `Cc1c[nH]c(CN(C)C(C(=O)O)c2c(F)cccc2Cl)n1` (centres unmarked) | 20.32% |
| `COc1ccc2[nH]cc(C(=O)CNc3nc(C)cs3)c2c1.I` | 30.97% |
| `CCc1cc(N(C)Cc2ccnc(C)c2)n2nc(C)c(C)c2n1` | -23.54% |
| `NCCn1nc(C2CCN(C(=O)Cc3ccccc3)C2)c2nccnc21` (centres unmarked) | -12.46% |
| `CCS(=O)(=O)N1CCc2c(CN3CCOCC3)cncc2C1.Cl.Cl` | 4.346% |
| `Cc1nc(N2CCCC2)nc2c1CN(C(C)C)CC2.O=C(O)C(F)(F)F` | 10.66% |
| `O=C(c1cc2cc(F)ccc2[nH]1)N1CCC(Nc2cccnn2)CC1` | 13.58% |
| `CC(=O)N1CCc2cc(Cl)cc(Cl)c2C1` | 0.7156% |
| `Fc1cccc(-n2nc(C3CC3)nc2CCn2cnnn2)c1` | -3.257% |
| `CCC[C@H]1CN(C2CCOCC2)C[C@@H]1NC(=O)CCn1ccnc1C` | 7.563% |
| `c1cnc(N2CCc3onc(CN4CCOCC4)c3C2)cn1` | -14.74% |
| `O=C1CC(C(=O)NCc2ccccc2Oc2ccccc2F)CCN1` (centres unmarked) | 15.19% |
| `CCCOCCCNc1nccc(-c2cn(C)nc2C)n1` | 7.49% |
| `CCn1cc(CN2CCCC3(CCC(=O)N(CCC(C)C)C3)C2)cn1` (centres unmarked) | 10.41% |
| `Cn1cccc1CNC(=O)N(CCO)C1CCCc2ccccc21` (centres unmarked) | 18.23% |
| `O=C(CCNS(=O)(=O)c1ccc(F)cc1)NCc1ccoc1` | -5.351% |
| `Cn1ccc(C(=O)NCc2ccc(N3CCOCC3)nc2)cc1=O` | -39.59% |
| `Cc1nc(NC(=O)c2cccnc2N2CCOCC2)sc1C` | 18.2% |
| `CCS(=O)(=O)N(C)C1CCN(C(=O)c2ccc(C)c(C)c2)CC1` | 1.409% |
| `COCCS(=O)(=O)c1ncc(CN(C)C)n1Cc1ccccc1` | 5.309% |
| `COc1cccn(CC(=O)N2CCC3(CCNCC3)C2)c1=O` | 25% |
| `Cc1cc(-c2cnc(NC3CCCC3)nc2-c2ccoc2C)on1` | 18.15% |
| `CS(=O)(=O)N1CCC(Oc2ccc(C(=O)NC3CCOC3)cc2Cl)CC1` (centres unmarked) | 6.907% |
| `Cc1cnn(CC2CCCN2c2ncnc3ccccc23)c1` (centres unmarked) | 10.66% |
| `CCc1cc(CN(C)Cc2nc(-c3ccc(OC)cc3F)oc2C)on1` | 23.25% |
| `Cc1nccc(-c2cccc(NCc3nc(C(C)C)no3)c2)n1` | 24.09% |
| `O=C(O)[C@@H]1CN(Cc2cnc(C3CCCCC3)nc2)C[C@H]1C1CC1` | -5.236% |
| `CCCn1nc(C)c(C(=O)N(C)[C@@H]2CC[C@@H](N3CCCC3)[C@@H]2O)c1C` | 7.465% |
| `CC(C)NC(=O)NCCCc1cccc(F)c1` | 18.28% |
| `CN(C)[C@@H]1CCN(C(=O)c2ccco2)[C@H]1Cc1cnn(C)c1.O=C(O)C(F)(F)F` | 14.22% |
| `Cc1cc(NCCCNc2cccnc2)n2nc(C)c(C)c2n1` | 31.25% |
| `CC1c2ncc(Cn3cncn3)n2CCN1CC1CCOCC1.O=C(O)C(F)(F)F` (centres unmarked) | 17.6% |
| `[H][C@]12CCN(C(=O)NCc3cccc(F)c3)C[C@@]1([H])OCCN(C)C2` | -2.537% |
| `[H][C@]12CC[C@]([H])(CN(C3Cc4ccccc4C3)C1)N(C(=O)CNC(N)=O)C2` | 2.965% |
| `CSCc1nc(CNC(=O)c2cnn(C(C)C)c2)cs1` | -4.472% |
| `O=C1CCc2cc(S(=O)(=O)NCc3cc4n(n3)CCCNC4)ccc2N1` | -3.151% |
| `O=C(O)C(F)(F)F.[H][C@]12CO[C@H](CNC(=O)c3cscn3)[C@@]1([H])CCN(Cc1ccco1)C2` | 19.16% |
| `O=C1COC2(CCN(C(=O)c3cnccn3)CC2)CN1CC1CC1` | -36.3% |
| `c1cnc2c(C3CCN(Cc4ccsc4)CC3)n[nH]c2n1` | -32.83% |
| `CNC(=O)C1(c2cnccn2)CCCN1C(=O)c1ccccn1` (centres unmarked) | -26.76% |
| `CC(C)N(C)Cc1nnc2n1CCCN(S(=O)(=O)C1CC1)C2.O=C(O)C(F)(F)F` | 1.589% |
| `CCOCC1CN(c2ncccn2)Cc2cnn(CC3CCOCC3)c21` (centres unmarked) | -30.94% |
| `Cn1ncc2c1C(COCC1CC1)CN(Cc1ccc(F)cc1)C2` (centres unmarked) | -13.42% |
| `O=C(NC1CCN(CC2CC2)C1)N1CCC(OC2CCCCC2)CC1` (centres unmarked) | 28.71% |
| `O=C(CCn1c(C(F)(F)F)cc2cccnc21)NC1CCCC1` | 6.027% |
| `O=C(O)C(F)(F)F.O=C(c1cnccn1)N1CC2(CCN(Cc3ccsc3)C2)C1` | 43.95% |
| `CC(CNC(=O)c1cccc(-n2cccn2)n1)Cn1ccnc1` (centres unmarked) | 28.88% |
| `COc1cccc(CN2CCN(C(=O)CN3CCOCC3)CC2)n1` | 15.93% |
| `O=C(O)C(=O)O.c1cnc(-c2noc(C3CN(Cc4ccc5c(c4)CCO5)C3)n2)cn1` | -14.73% |
| `CC(C)Nc1cccc(CNC(=O)N2CCC(N3CC=CC3)C2)c1` (centres unmarked) | -33.21% |
| `COc1cccc(CC(=O)N2CCc3ncnc(NCCO)c3CC2)c1` | -4.697% |
| `Cc1cnc(CNCc2cn(CCN3CCSCC3)nc2C)cn1` | -24.42% |

The last 4 entries again:

structure,Percent Effect
O=C(O)C(=O)O.c1cnc(-c2noc(C3CN(Cc4ccc5c(c4)CCO5)C3)n2)cn1,-14.73%
CC(C)Nc1cccc(CNC(=O)N2CCC(N3CC=CC3)C2)c1 (centres unmarked),-33.21%
COc1cccc(CC(=O)N2CCc3ncnc(NCCO)c3CC2)c1,-4.697%
Cc1cnc(CNCc2cn(CCN3CCSCC3)nc2C)cn1,-24.42%